Read-outs that look alike come from different tables or passages of the source. These are yes or no findings as the source states them, for the method shown. Some entries that bind do so weakly or less than the wild type. For some assays here: Tags and fused reporters may be left off the sequences shown.
B1: E-cadherin complete extracellular region, biotinylated (Ecad-ATH) (domain or fragment)
chain: DWVIPPISCPENEKGPFPKNLVQIKSNRDKEIKVFYSITGQGADAPPVGVFIIERETGWLKVTEPLDREQIAKYILYSHAVSSNGNAVEDPMEIVITVTDQNDNKPEFTQAVFQGSVTEGALPGTSVMQVTATDADDDVNTYNAAIAYSILTQDPLLPSSMMFTINKDTGVISVLTTGLDREGVPMYTLVVQAADLQGEGLTTTATAVITVTDINDNPPIFNPTTYQGRVPENKANVEIAVLKVTDADVPDTPAWRAVYTILNNNNDQFVVTTDPVTNDGILKTTKGLDFEDKQQYVLYVTVVNVTPFEVILSTSTATVTVDVEDVNEAPIFIPCPKVVSIPEDFGVGQEITSYTAEDPDTYMEQRITYRIWRDAAGWLEVNPESGAIFTRAELDREDFEHVKNSTYEALIIAIDNGSPVATGTGTLLLVLSDVNDNGPIPEPRNMDFCQKNPQPHVINIIDPDLPPNTSPFTAELTHGASVNWTIEYNDPARESLILKPKKTLELGDYKINLKLTDNQNKDQVTTLDVFVCDCEGVVNSCKRTAPYAEAGLQVPA
modifications: biotin on the Avi-tag (BirA enzyme)
B2: Recombinant human CAR-FC, P78310 20-237 (Fc fusion)
chain: LSITTPEEMIEKAKGETAYLPCKFTLSPEDQGPLDIEWLISPADNQKVDQVIILYSGDKIYDDYYPDLKGRVHFTSNDLKSGDASINVTNLQLSDIGTYQCKVKKAPGVANKKIHLVVLVKPSGARCYVDGSEEIGSDFKIKCEPKEGSLPLQYEWQKLSDSQKMPTSWLAEMTSSVISVKNASSEYSGTYSCTVRNRVGSDQCLLRLNVVPPSNKAG

Protein sequences, listed by entry. Tags and fused reporters are not part of them. Lines headed by an entry give the natural chain unless they say otherwise; changes in a name come on top.
UniProt P17301: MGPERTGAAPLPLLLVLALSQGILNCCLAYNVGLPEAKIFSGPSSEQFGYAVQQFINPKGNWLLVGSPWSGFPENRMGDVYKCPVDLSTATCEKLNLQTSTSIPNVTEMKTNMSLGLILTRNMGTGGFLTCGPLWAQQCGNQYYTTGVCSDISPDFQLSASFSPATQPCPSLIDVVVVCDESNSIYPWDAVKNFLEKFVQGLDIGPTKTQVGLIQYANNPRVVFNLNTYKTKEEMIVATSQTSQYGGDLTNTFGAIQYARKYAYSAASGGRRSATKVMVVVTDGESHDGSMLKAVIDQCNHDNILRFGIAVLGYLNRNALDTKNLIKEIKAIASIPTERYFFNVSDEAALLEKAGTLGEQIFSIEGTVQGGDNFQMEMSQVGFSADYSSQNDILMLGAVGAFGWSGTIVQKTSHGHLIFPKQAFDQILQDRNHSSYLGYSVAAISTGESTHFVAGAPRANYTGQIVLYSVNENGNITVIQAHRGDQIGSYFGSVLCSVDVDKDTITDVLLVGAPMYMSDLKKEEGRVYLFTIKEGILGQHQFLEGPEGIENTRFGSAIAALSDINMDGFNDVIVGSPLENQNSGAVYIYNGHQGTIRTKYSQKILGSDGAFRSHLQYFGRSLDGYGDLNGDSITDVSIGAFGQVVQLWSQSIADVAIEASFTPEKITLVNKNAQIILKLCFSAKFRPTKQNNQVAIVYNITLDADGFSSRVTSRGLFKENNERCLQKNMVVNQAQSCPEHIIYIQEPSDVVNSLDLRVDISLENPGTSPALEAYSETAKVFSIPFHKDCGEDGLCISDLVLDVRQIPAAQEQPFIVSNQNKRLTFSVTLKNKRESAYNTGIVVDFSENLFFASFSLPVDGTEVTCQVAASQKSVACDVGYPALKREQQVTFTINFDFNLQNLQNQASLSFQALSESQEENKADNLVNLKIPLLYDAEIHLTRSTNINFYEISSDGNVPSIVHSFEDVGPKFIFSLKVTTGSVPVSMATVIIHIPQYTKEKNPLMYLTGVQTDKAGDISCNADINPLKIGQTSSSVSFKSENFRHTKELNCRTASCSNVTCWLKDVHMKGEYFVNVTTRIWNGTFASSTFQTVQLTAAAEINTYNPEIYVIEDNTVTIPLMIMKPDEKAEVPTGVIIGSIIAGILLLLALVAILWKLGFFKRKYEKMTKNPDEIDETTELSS
UniProt P05556: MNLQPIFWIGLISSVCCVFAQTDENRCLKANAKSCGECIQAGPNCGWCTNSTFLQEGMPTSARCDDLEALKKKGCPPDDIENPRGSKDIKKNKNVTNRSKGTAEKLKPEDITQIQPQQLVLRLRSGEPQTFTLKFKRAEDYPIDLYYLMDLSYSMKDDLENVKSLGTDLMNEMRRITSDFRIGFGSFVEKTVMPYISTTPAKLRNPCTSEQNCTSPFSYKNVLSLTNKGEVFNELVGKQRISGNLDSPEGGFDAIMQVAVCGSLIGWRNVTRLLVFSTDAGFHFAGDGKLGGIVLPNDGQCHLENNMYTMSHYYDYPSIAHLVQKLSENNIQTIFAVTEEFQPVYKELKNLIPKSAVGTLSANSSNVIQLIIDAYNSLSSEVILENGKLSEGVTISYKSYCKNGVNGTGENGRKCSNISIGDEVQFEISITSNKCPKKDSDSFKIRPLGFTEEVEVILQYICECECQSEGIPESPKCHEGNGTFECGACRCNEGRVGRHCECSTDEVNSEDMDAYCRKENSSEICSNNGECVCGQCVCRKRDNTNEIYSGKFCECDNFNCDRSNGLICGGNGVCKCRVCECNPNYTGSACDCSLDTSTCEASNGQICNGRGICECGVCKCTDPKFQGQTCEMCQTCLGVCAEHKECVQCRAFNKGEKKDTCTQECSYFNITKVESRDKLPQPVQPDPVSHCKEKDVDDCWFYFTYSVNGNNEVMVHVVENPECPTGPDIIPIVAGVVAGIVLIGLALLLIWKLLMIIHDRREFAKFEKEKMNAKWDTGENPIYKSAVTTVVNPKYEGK

Columns and labels:
Assay in all cases: single molecule AFM force measurement
[1] = target: E-cadherin complete extracellular region, biotinylated (Ecad-ATH) (UniProt F1PAA9)
[2] = target: T1, Desmocollin-3 complete extracellular region, biotinylated (Dsc3-ATH) (human) (UniProt Q14574)
T1 sequence (chain, biotin on the Avi-tag (BirA enzyme)): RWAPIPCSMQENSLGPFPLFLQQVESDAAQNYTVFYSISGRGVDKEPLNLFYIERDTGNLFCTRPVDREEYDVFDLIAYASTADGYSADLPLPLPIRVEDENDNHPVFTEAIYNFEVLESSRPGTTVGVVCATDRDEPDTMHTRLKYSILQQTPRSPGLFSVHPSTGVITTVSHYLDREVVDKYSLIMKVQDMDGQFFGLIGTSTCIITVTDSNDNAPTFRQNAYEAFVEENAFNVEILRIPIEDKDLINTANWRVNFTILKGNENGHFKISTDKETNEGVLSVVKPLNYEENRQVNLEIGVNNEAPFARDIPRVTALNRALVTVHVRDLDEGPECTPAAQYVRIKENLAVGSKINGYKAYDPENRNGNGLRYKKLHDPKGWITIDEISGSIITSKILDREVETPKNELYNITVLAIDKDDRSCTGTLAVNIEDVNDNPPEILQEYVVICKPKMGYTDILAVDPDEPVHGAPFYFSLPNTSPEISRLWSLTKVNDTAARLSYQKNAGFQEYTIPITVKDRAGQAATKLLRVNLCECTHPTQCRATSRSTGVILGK

[3] = target: Human Integrin α2β1 heterodimer with human c-Jun and human c-Fos (human) (UniProt P17301+P05556)
[4] = target: T1, Desmocollin-3 complete extracellular region, biotinylated (Dsc3-ATH) (human); remark: listed apart in the source
[5] = target: T2, Recombinant human CAR-FC (human), P78310; settings: remark: other sources report otherwise
T2 chain: B2 chain

Row | Binder | binding [1] | binding [2] | binding [3] | binding [4] | binding [5]
1 | B1 | binds | binds | binds | binds | 
2 | B2 |  |  |  |  | binds

Source: paper doi:10.1101/2020.05.08.084889 (bioRxiv, 2020)
